Article doi:10.1101/648071 (bioRxiv, 2019)
No constants are given. Whether binding was seen depends on the method and setting. Some entries that bind do so weakly or less than the wild type.

By UniProt entry, the sequences of proteins in these tests, tags left out. Residues count along the entry.
UniProt P40699, 140-297: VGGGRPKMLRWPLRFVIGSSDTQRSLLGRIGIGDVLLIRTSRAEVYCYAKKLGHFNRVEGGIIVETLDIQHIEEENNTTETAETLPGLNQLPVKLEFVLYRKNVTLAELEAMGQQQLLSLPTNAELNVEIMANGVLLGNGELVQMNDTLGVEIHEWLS
UniProt P40699, 1-145: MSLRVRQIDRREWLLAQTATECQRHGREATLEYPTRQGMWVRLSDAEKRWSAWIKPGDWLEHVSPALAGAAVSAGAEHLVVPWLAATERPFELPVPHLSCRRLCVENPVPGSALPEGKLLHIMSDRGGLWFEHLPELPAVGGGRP
UniProt P40699, whole entry: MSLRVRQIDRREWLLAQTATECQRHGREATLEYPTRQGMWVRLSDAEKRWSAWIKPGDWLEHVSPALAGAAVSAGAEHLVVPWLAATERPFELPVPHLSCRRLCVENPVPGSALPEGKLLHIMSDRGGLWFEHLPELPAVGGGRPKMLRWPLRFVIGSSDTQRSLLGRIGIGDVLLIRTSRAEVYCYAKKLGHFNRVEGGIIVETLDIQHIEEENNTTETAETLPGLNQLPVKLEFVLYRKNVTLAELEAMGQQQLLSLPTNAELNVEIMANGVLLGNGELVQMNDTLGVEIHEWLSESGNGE

What was measured:
[1] = biological target: SpaO SPOA1-SPOA2 construct (SpaO 140-297) (Salmonella Typhimurium strain SL1344) (UniProt P40699); test: SEC-MALS
[2] = biological target: SpaO SPOA1-SPOA2 construct (SpaO 140-297) (Salmonella Typhimurium strain SL1344) (UniProt P40699); test: native MS
[3] = biological target: SpaO N-terminal domain (SpaO 1-145) (Salmonella Typhimurium strain SL1344) (UniProt P40699); test: SEC-MALS
[4] = biological target: SpaO in the SpaO/SpaOC/OrgB/InvC complex (spaO+orgB+invC co-expression) (Salmonella Typhimurium strain SL1344) (UniProt P40699); test: SEC-MALS

For “SpaOC, short product of the spaO gene, C-terminal Strep-tag (from UniProt P40699 203-303)”, the binding [1] was “binds weakly”.
In the case of “SpaO SPOA1-SPOA2 construct (SpaO 140-297) (from UniProt P40699 140-297) (domain or fragment)”, the binding [1] is reported as “no binding”.
For “SpaO N-terminal domain (SpaO 1-145) (from UniProt P40699 1-145) (domain or fragment)”, the binding [2] was “no binding” and the binding [3] was “no binding”.
In the case of “SpaOC in the SpaO/SpaOC/OrgB/InvC complex (spaO+orgB+invC co-expression) (from UniProt P40699 203-303)”, the binding [4] is reported as “binds”.
